Some of the results follow. Shown are side measurements of this screen, not its main read-out; they come without a call. Most of these compounds were active or inconclusive in the main read-out, so they are no random draw. Words in brackets tell the shape of the fitted curve; partial curves, single points and poor fits give uncertain potencies.
Experiment: qHTS Assay for Lipid Storage Modulators in Drosophila S3 Cells;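 for cell number change: cells counted by Cell Tracker Red CMTPX staining in the red channel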
Conditions: BODIPY lipid droplet fluorescence, 18-24 h; for cell number change: measured here: cell count max response, cells fed with added oleic acid
In short: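 Laser-scanning cytometry quantifies lipid droplet accumulation (500–530 nm total intensity; droplet/cell object ratio) in oleic acid-fed (400 uM added) Drosophila S3 cells treated with a concentration series. 20 uM Triacsin C defined 100% inhibition.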

[1] = measured here: cell number channel AC50, cells fed with added oleic acid
[2] = measured here: lipid fluorescence (Fed channel) AC50, cells fed with added oleic acid

Row | Structure (SMILES) | AC50 [1] | cell number change [%] | AC50 [2]
1 | CC(NS(C)(=O)=O)C(c1cccs1)N1CCN(C)CC1 (configuration not stated) | 0.13 µM [falling, full curve, poor fit] | – | –
2 | COc1ccc(CN(CC(=O)NC2CCCC2)C(=O)c2ccc(-c3ccccc3)[nH]2)cc1 | 0.184 µM [falling, full curve, poor fit] | – | –
3 | CCCCN(C(=S)Nc1cccc(C)c1C)c1c(N)n(CCC)c(=O)[nH]c1=O | 0.82 µM [falling, partial curve] | 11.1 | 29.1 µM [falling, single point]
4 | CCN(CC)C(=S)SC1=CCS(=O)(=O)C1 | – | 28.5 | 29.1 µM [rising, single point]
5 | CC(C)(C)c1ccc(-c2nnc(SCC(=O)Nc3sc4c(c3C#N)CCCC4)o2)cc1 | – | 21.4 | 20.6 µM [rising, single point]
6 | CCOc1ccc(N=C2C(=O)N(CN3CCOCC3)c3ccccc32)cc1 | – | -5.35 | 0.0291 µM [falling, full curve, poor fit]
7 | CC(=O)c1cnc2c(C(=O)O)cnn2c1C | – | -4.42 | 6.51 µM [falling, single point]
8 | COc1ccccc1CC(=O)Nc1ccc(-c2nnc(-c3ccco3)o2)cc1 | – | -9.56 | –
9 | CCN(CC)CC(=O)N1N=C(c2cccs2)CC1c1ccco1 (configuration not stated) | 16.4 µM [falling, partial curve] | -116 | –
10 | CCC(=O)Nc1nnc(S(=O)(=O)N2CCc3ccccc32)s1 | – | -7.49 | –
11 | O=C1[C@@H]2[C@H](Cc3ccc(O)cc3)N[C@]3(C(=O)Nc4ccccc43)[C@@H]2C(=O)N1c1ccc(F)cc1 | – | -0.0641 | 4.11 µM [falling, single point]
12 | Oc1ccccc1Nc1ncnc2c1oc1ccccc12 | – | -12.3 | –
13 | Cc1ccc(COc2ccc(/C=N/NC(=O)CN3CCCCC3)cc2)cc1 | 0.00411 µM [rising, full curve, poor fit] | 3.63 | –
14 | O=C(O)CCCCCNC(=O)c1ccc(C(=O)NCCCCCC(=O)O)cc1 | – | -16.3 | 1.16 µM [falling, full curve]
15 | CCOC(=O)C1CCN(C(=O)COC(=O)COc2ccccc2OC)CC1 | – | -7.22 | 29.1 µM [falling, single point]
16 | O=c1ccc(C(F)(F)F)cn1Cc1cc(=O)n2cc(Br)ccc2n1 | – | – | 14.6 µM [rising, partial curve]
17 | COc1ccc(CNCCSc2nnnn2C)c(OC)c1OC | – | 16.9 | 0.517 µM [falling, full curve, poor fit]
18 | Cc1ccc(S(=O)(=O)N2CCCC(C(=O)N3CCN(c4ccccc4)CC3)C2)cc1 (configuration not stated) | 32.6 µM [falling, single point] | -39.2 | 11.6 µM [falling, partial curve]
19 | COc1ccccc1CNC(=O)COC(=O)c1cnccn1 | – | -2.91 | –
20 | COc1ccc(/C=N/Nc2nc(-c3ccc(C)cc3)c(C#N)c(=O)[nH]2)cc1 | 2.06 µM [rising, partial curve] | 80.9 | –
21 | Cc1ccc(S(=O)(=O)N(CC(=O)NCC2CCCO2)Cc2cccc(C)c2)cc1 (configuration not stated) | – | 14.5 | 0.116 µM [rising, full curve, poor fit]

Row | Structure (SMILES) | AC50 [1] | cell number change [%] | AC50 [2]
22 | CCOC(=O)C1(CCOc2ccccc2)CCN(CCCn2cccn2)CC1 | – | 1.65 | 0.82 µM [falling, full curve, poor fit]
23 | Cc1cccc(NC(=S)N=Nc2c(O)n(C)c3ccc(S(=O)(=O)N4CCOCC4)cc23)c1 | – | 9.59 | 7.31 µM [falling, single point]
24 | Cc1ccc(S(=O)(=O)N/N=C2/CC(c3ccccc3)Oc3ccccc32)cc1[N+](=O)[O-] (configuration not stated) | – | -8.56 | 18.4 µM [rising, single point]
25 | COc1ccc(Cl)cc1-c1nc(SCC(=O)N(C)CCC#N)n[nH]1 | 0.411 µM [falling, single point] | 12.5 | –
26 | COCC(=O)N1CCC(Oc2ccc(C(=O)N(C)C3CCCCC3)cc2)CC1 | – | 4.54 | 1.16 µM [rising, full curve, poor fit]
27 | CCc1ccc(NC(=S)N(Cc2ccccc2)Cc2ccccn2)cc1 | 20.6 µM [rising, partial curve] | 60.7 | –
28 | CCOC(=O)COc1cc2oc(=O)cc(C)c2cc1[N+](=O)[O-] | – | -27.2 | 29.1 µM [falling, single point]
29 | Cc1ccc(SCc2cc(=O)[nH]c(N3CCCCC3)n2)cc1 | – | 4.7 | –
30 | Cc1ccc(S(=O)(=O)NC(C)CCc2ccccc2)cc1 (configuration not stated) | 0.00461 µM [falling, full curve, poor fit] | – | 0.13 µM [falling, full curve, poor fit]
31 | Cc1cc(C(=O)COc2nncc3ccccc23)c(C)n1C | 0.58 µM [rising, single point] | 23.9 | 4.11 µM [rising, single point]
32 | O=C(NCCc1nc2ccccc2[nH]1)Nc1ccccc1 | – | -17.1 | 5.17 µM [falling, full curve, poor fit]
33 | CCN(CC(=O)Nc1ccc(NC(C)=O)cc1)C(=O)CSC(=S)N1CCCC1 | 20.6 µM [falling, single point] | -38.4 | 20.6 µM [falling, single point]
34 | CCC(C)C(=O)Nc1cccc(SC)c1 (configuration not stated) | 29.1 µM [falling, single point] | -43.4 | 0.058 µM [falling, full curve, poor fit]
35 | CC[C@@]1(O)C(=O)OCc2c1cc1n(c2=O)Cc2cc3c(N)cccc3nc2-1 | – | -22.6 | 0.0231 µM [falling, full curve, poor fit]
36 | Cc1cccc(C)c1NC(=O)CN(C)C(=O)C1CCN(c2ncnc3sc(C)c(C)c23)CC1 | 0.731 µM [rising, partial curve] | 3.19 | 2.31 µM [rising, partial curve]
37 | c1cc2c(cc1-c1[nH]ncc1CN1CC3C[C@@H]4CC1C[C@H](C3)C4)OCO2 | – | 12.7 | –
38 | CN1CCN(c2ccc(C(=O)c3cn(-c4ccc(F)c(Cl)c4)nn3)cc2)CC1 | – | – | 4.61 µM [falling, partial curve]
39 | Cc1cccc(NC(=O)c2cc(S(=O)(=O)N3CCC4(CC3)OCCO4)ccc2F)c1 | – | – | 6.51 µM [rising, single point]
40 | CCOc1ccc(N(CC(=O)NCCc2ccccc2)C(=O)CCC(=O)Nc2nccs2)cc1 | – | -5.13 | –
41 | O=C(CC12CC3CC(CC(C3)C1)C2)NCCN1CCOCC1 | – | -10.6 | 0.731 µM [falling, full curve, poor fit]
42 | COc1ccc(NC(=O)CSc2nccn2-c2cccc(OC)c2)cc1 | – | -20.9 | 29.1 µM [falling, single point]

Row | Structure (SMILES) | AC50 [1] | cell number change [%] | AC50 [2]
43 | CC(=O)c1c(C)[nH]c(C(=O)Nc2cccc(S(=O)(=O)N(C)c3ccccc3)c2)c1C | – | -25.5 | 0.82 µM [falling, full curve, poor fit]
44 | Cc1ccc(S(=O)(=O)N(NC2=NS(=O)(=O)c3ccccc32)C(=O)c2ccccc2)cc1 | – | -2.29 | 32.6 µM [rising, single point]
45 | c1ccc(COCCN2CCN(CCOCc3ccccc3)CC2)cc1 | – | -6.33 | –
46 | O=C(NCc1ccco1)Nc1ccccc1Cl | – | – | 6.51 µM [falling, single point]
47 | CCN(CC)C(=O)CSc1nc2nc(C)cc(C)c2c(=O)[nH]1 | – | 121 | 0.58 µM [falling, single point]
48 | CCc1noc(C)c1C(=O)Nc1cc(Cl)ccc1N1CCCC1 | 14.6 µM [rising, partial curve] | 46.5 | –
49 | CN(Cc1nc(Cc2ccccc2F)no1)Cc1cccc2ncccc12 | – | 6.79 | 6.51 µM [rising, single point]
50 | CC(C)C[C@H](NC(=O)N1CCn2c1nc1ccccc12)C(=O)NCc1ccco1 | – | 1.22 | –
51 | CC(C)n1c(O)c(N=Nc2ccc(Cl)nn2)c2ccccc21 | – | -16.3 | 6.51 µM [falling, single point]
52 | CCOC(=O)c1c(NC(=O)CN2C(=O)NC3(CCC(C)CC3)C2=O)sc(C(=O)N(C)C)c1C (configuration not stated) | – | – | 0.58 µM [rising, full curve]
53 | COc1cc(C(=O)NC(=S)Nc2ccccc2N2CCOCC2)cc(OC)c1OC | – | 13 | –
54 | CC(Nc1nc(C(F)(F)F)nc2ccccc12)c1cccs1 (configuration not stated) | – | -19 | 6.51 µM [rising, single point]
55 | Cc1nc2cc(-c3ccccc3)nn2c(C)c1CCC(=O)N1CCN(c2ccccc2)CC1 | 0.651 µM [falling, full curve] | -62 | 29.1 µM [falling, single point]
56 | CN(Cc1ccc(C(C)(C)C)cc1)C(=O)C1CCN(C(=O)Nc2ccccc2)CC1 | 9.2 µM [falling, partial curve, poor fit] | -30.7 | 18.4 µM [falling, partial curve]
57 | O=C(O)CSc1c(-c2cccs2)[nH]c2ccccc12 | – | 3.14 | –
58 | Cc1ccc(S(=O)(=O)N2C(=O)CCC2C(N)=O)cc1 (configuration not stated) | – | 1.59 | –
59 | CCOc1ccc(OCCOCCn2ccnc2)cc1 | 0.731 µM [rising, single point] | – | 1.46 µM [rising, partial curve]
60 | CC(=O)c1ccccc1NC(=O)COc1ccc(N(C)S(=O)(=O)c2ccc(C)c(C)c2)cc1 | – | -6.25 | 29.1 µM [falling, single point]
61 | Cc1ccccc1NC(=O)COC(=O)c1cc(=O)c2ccccc2o1 | – | 6.78 | 0.731 µM [falling, single point]
62 | CC(C)c1ccc(CN2CCN(S(=O)(=O)c3ccc(Cl)s3)CC2)cc1 | – | 6.37 | –

Three entries drawn at random from those above, as already listed:
Row | Structure (SMILES) | AC50 [1] | cell number change [%] | AC50 [2]
16 | O=c1ccc(C(F)(F)F)cn1Cc1cc(=O)n2cc(Br)ccc2n1 | – | – | 14.6 µM [rising, partial curve]
20 | COc1ccc(/C=N/Nc2nc(-c3ccc(C)cc3)c(C#N)c(=O)[nH]2)cc1 | 2.06 µM [rising, partial curve] | 80.9 | –
17 | COc1ccc(CNCCSc2nnnn2C)c(OC)c1OC | – | 16.9 | 0.517 µM [falling, full curve, poor fit]
